The assay deals with T1, HA-tagged ASGR1 (WT) (UniProt P07306).
T1 sequence: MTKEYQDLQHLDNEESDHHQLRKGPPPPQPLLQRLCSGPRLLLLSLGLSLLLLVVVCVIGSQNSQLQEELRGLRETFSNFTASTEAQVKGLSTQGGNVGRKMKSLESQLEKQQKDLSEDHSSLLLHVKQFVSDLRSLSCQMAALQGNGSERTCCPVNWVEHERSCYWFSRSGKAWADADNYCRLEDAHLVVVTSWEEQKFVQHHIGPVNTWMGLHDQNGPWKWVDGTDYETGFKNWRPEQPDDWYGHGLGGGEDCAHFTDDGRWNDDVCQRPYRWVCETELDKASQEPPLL
Briefly: affinity purification with mass spectrometry; IP of HA-tagged ASGR1 complexes from HepG2 cells with anti-HA magnetic beads, eluted with HA peptide, trypsin digest, LC-MS/MS; candidates further screened on UniProt for glycan features of ASGR1 ligands.

No constants are given. Whether binding was seen depends on the method and setting. In cells and extracts the contact can be indirect. A yes stands for co-enrichment or nearness to the bait. Other partners may have been found. Where a sequence is shown, tags or fusion partners need not be part of it.

B1: CREB3L1, endogenous in HepG2 cells (protein, UniProt Q96BA8 1-519)
chain: MDAVLEPFPADRLFPGSSFLDLGDLNESDFLNNAHFPEHLDHFTENMEDFSNDLFSSFFDDPVLDEKSPLLDMELDSPTPGIQAEHSYSLSGDSAPQSPLVPIKMEDTTQDAEHGAWALGHKLCSIMVKQEQSPELPVDPLAAPSAMAAAAAMATTPLLGLSPLSRLPIPHQAPGEMTQLPVIKAEPLEVNQFLKVTPEDLVQMPPTPPSSHGSDSDGSQSPRSLPPSSPVRPMARSSTAISTSPLLTAPHKLQGTSGPLLLTEEEKRTLIAEGYPIPTKLPLTKAEEKALKRVRRKIKNKISAQESRRKKKEYVECLEKKVETFTSENNELWKKVETLENANRTLLQQLQKLQTLVTNKISRPYKMAATQTGTCLMVAALCFVLVLGSLVPCLPEFSSGSQTVKEDPLAADGVYTASQMPSRSLLFYDDGAGLWEDGRSTLLPMEPPDGWEINPGGPAEQRPRDHLQHDHLDSTHETTKYLSEAWPKDGGNGTSPDFSHSKEWFHDRDLGPNTTIKLS
As for B1, the binding result is given as “binds”.

The values are drawn from article PMC10924105.
